For assay [1], the target named is T1, Kv4.3 (α subunit of Ito, KCND3) (human) (UniProt Q9UK17).
T1 sequence: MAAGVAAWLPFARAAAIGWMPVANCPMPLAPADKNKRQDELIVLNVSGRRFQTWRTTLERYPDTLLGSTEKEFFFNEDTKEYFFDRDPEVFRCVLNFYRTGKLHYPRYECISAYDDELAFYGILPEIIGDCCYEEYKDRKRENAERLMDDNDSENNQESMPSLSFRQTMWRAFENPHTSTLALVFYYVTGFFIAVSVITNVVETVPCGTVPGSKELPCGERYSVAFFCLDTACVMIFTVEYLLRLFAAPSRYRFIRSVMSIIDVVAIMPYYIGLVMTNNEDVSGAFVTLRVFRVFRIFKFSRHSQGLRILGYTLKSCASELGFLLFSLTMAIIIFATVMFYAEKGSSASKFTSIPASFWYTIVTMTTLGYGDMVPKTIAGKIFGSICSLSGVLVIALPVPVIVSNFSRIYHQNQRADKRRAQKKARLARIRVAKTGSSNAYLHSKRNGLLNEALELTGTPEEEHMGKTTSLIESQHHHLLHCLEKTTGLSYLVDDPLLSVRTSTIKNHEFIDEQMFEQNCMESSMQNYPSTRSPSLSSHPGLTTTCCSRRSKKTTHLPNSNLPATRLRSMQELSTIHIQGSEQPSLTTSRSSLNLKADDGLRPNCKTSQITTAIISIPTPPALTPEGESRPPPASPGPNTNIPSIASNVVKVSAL
Put plainly: co-IP; whole-cell lysate (0.5 mg) of HEK293T cells transfected with Kv4.3 alone; primary antibody overnight at 4 °C, protein A/G plus agarose beads 4 h at 4 °C, washed with RIPA lysis buffer, Western blot.

In assay [2] the target is T1, Kv4.3 (α subunit of Ito, KCND3) (human). Put plainly: co-IP; whole-cell lysate (0.5 mg) of HEK293T cells co-transfected with hERG and Kv4.3, also with Hsp70 siRNA; primary antibody overnight at 4 °C, protein A/G plus agarose beads 4 h at 4 °C, washed with RIPA lysis buffer, Western blot.
Assay [3] has as its target Hsp70 (human (endogenous in HEK293T)). Description: co-IP; whole-cell lysate (0.5 mg) of HEK293T cells transfected with Kv4.3 alone; primary antibody overnight at 4 °C, protein A/G plus agarose beads 4 h at 4 °C, washed with RIPA lysis buffer, Western blot.
The target is the same in assay [4]. Put plainly: co-IP; whole-cell lysate (0.5 mg) of HEK293T cells co-transfected with hERG and Kv4.3, also with Hsp70 siRNA; primary antibody overnight at 4 °C, protein A/G plus agarose beads 4 h at 4 °C, washed with RIPA lysis buffer, Western blot.

No constants are given. Whether binding was seen depends on the method and setting. Binding seen in cells or lysates may run through a third protein. Binding calls can cover weak binding; strength is not graded here.

For the molecule Hsp70 (human (endogenous in HEK293T)), the binding entry in assay [1] and in assay [2] was “binds” throughout.

B1: Kv4.3 (α subunit of Ito, KCND3) (protein, UniProt Q9UK17 1-655)
chain: MAAGVAAWLPFARAAAIGWMPVANCPMPLAPADKNKRQDELIVLNVSGRRFQTWRTTLERYPDTLLGSTEKEFFFNEDTKEYFFDRDPEVFRCVLNFYRTGKLHYPRYECISAYDDELAFYGILPEIIGDCCYEEYKDRKRENAERLMDDNDSENNQESMPSLSFRQTMWRAFENPHTSTLALVFYYVTGFFIAVSVITNVVETVPCGTVPGSKELPCGERYSVAFFCLDTACVMIFTVEYLLRLFAAPSRYRFIRSVMSIIDVVAIMPYYIGLVMTNNEDVSGAFVTLRVFRVFRIFKFSRHSQGLRILGYTLKSCASELGFLLFSLTMAIIIFATVMFYAEKGSSASKFTSIPASFWYTIVTMTTLGYGDMVPKTIAGKIFGSICSLSGVLVIALPVPVIVSNFSRIYHQNQRADKRRAQKKARLARIRVAKTGSSNAYLHSKRNGLLNEALELTGTPEEEHMGKTTSLIESQHHHLLHCLEKTTGLSYLVDDPLLSVRTSTIKNHEFIDEQMFEQNCMESSMQNYPSTRSPSLSSHPGLTTTCCSRRSKKTTHLPNSNLPATRLRSMQELSTIHIQGSEQPSLTTSRSSLNLKADDGLRPNCKTSQITTAIISIPTPPALTPEGESRPPPASPGPNTNIPSIASNVVKVSAL
Take B1: the binding entry in assay [3] and in assay [4] was “binds” each time.

The values above are taken from publication PMC5736654.
